Test in all cases: two-hybrid
The target in assay [1] is T1, 20S proteasome subunit PBE1, yeast two-hybrid fusion (Arabidopsis thaliana) (UniProt O23717).
T1 sequence: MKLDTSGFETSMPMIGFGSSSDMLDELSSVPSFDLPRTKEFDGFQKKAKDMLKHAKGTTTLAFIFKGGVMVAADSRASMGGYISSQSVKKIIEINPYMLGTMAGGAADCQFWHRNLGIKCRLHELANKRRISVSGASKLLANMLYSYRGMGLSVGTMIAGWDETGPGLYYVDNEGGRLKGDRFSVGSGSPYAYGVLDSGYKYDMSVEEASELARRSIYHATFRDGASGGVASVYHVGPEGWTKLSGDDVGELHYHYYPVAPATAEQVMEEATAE

The chains behind the UniProt entries cited, without tags or fusion partners. Where a name states a change or a piece, a line headed by the entry shows the natural chain unless it says otherwise.
UniProt Q94AI4: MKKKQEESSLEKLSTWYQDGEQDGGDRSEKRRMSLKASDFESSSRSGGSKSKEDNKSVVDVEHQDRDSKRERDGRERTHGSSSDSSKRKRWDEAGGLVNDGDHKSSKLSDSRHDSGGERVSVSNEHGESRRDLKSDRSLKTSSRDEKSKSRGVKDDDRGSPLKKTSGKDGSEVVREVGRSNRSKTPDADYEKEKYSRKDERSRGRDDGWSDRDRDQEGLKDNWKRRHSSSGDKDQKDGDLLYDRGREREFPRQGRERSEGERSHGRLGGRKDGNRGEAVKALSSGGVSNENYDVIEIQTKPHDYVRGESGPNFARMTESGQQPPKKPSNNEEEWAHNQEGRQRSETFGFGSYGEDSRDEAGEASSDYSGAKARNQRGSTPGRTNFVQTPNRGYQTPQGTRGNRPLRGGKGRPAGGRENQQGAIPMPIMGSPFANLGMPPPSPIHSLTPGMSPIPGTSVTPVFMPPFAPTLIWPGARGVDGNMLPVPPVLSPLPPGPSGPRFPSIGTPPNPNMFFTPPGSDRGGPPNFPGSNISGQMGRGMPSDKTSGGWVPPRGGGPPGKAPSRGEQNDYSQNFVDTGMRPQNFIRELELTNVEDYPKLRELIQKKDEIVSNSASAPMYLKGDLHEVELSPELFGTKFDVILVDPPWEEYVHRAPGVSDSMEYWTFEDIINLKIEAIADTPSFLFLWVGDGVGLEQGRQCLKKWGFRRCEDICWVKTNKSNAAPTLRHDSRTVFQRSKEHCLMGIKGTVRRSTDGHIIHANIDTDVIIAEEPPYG

The target of assay [2] is T2, SERRATE (SE), yeast two-hybrid fusion (Arabidopsis thaliana) (UniProt Q9ZVD0).
T2 sequence: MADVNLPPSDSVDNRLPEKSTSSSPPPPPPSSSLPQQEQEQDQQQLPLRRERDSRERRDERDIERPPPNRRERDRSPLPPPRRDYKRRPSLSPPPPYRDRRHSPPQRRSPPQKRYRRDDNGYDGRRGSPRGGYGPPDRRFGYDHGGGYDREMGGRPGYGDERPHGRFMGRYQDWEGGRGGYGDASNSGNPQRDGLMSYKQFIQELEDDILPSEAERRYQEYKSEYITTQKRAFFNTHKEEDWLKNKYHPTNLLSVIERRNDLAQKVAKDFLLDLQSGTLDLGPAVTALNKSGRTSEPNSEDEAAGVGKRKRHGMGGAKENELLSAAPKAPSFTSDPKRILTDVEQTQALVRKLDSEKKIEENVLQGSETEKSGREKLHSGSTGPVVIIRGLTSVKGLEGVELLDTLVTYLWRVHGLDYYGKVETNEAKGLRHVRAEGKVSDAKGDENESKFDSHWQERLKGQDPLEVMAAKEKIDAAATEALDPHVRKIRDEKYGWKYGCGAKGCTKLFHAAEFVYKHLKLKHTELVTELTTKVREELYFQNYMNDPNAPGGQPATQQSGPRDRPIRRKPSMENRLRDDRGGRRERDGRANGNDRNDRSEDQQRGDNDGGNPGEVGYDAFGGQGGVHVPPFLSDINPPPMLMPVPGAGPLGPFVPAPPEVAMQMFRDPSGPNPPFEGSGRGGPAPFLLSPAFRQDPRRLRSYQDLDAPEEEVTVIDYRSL

The target of assay [3] is T3, 20S proteasome subunit PBE2, yeast two-hybrid fusion (Arabidopsis thaliana) (UniProt Q9LIP2).
T3 sequence: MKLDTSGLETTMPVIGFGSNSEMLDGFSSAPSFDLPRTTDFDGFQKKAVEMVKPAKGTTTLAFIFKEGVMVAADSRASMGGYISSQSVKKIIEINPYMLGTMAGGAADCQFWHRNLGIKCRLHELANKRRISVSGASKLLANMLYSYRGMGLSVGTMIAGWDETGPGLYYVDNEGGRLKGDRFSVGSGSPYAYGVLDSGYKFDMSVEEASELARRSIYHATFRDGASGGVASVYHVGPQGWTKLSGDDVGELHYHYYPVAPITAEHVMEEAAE

For assay [4], the target named is T4, 20S proteasome subunit PAG1, yeast two-hybrid fusion (Arabidopsis thaliana) (UniProt O23715).
T4 sequence: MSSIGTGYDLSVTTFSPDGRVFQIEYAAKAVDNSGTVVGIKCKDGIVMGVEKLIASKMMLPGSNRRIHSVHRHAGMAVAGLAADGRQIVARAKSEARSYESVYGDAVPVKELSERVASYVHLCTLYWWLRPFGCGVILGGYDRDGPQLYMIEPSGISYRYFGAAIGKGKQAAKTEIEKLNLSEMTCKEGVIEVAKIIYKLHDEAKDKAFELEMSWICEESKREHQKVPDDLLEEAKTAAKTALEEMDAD

Assay [5] has as its target T5, C-terminal region (469 to 720 aa) of SE, yeast two-hybrid fusion (Arabidopsis thaliana) (UniProt Q9ZVD0).
T5 sequence: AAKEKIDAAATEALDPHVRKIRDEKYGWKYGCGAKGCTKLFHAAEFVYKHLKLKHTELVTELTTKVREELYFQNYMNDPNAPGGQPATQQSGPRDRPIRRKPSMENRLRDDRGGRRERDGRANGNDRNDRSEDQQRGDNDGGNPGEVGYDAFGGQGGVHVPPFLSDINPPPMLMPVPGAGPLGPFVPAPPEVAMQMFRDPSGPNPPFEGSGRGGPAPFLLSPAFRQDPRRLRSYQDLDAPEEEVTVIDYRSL

No constants are given. Whether binding was seen depends on the method and setting. A result given as binding can be weak or reduced; the word gives no strength. Tags and fused reporters may be left off the sequences shown.

For “MTC subunit B (MTB), yeast two-hybrid fusion (from UniProt Q94AI4-2)”, the binding entry in assay [1], in assay [2], in assay [3] and in assay [4] was “binds” each time.
For “N-terminal IDR (1 to 634 aa) of MTB, yeast two-hybrid fusion (from UniProt Q94AI4) (domain or fragment)”, the binding entry in assay [5] is “binds”.

The values above are taken from doi:10.1101/2024.08.31.610644.
